Measurements reported in patent US20200024319A1.
No constants are given. Whether binding was seen depends on the method and setting. Some binding calls cover weakened binding; strength is not graded here.

Sequences of proteins named here, by UniProt entry; tags and fusion partners are left off. A change or cut given only in a name is not applied to a line headed by its entry. Residues count along the entry.
UniProt Q29615, residues 21-154: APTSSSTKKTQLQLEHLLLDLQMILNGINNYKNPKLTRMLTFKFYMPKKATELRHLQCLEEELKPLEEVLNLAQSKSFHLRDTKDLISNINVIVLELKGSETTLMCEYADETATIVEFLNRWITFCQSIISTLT
UniProt P60568: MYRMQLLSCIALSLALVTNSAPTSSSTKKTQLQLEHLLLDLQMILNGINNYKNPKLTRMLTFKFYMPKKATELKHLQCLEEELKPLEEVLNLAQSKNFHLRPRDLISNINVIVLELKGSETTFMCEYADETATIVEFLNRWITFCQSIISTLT

Key:
[1] = target: cynomolgus monkey IL-2 (cynomolgus monkey) (UniProt Q29615); assay: ELISA
[2] = target: wild-type human IL-2 (human) (UniProt P60568); assay: ELISA

binding [1] | binding [2] | Binder
binds | binds | 14A6 (antibody, V domains shown) VH: QVQLVQSGAEVKKPGASVKVSCKASGYTFTTYDINWVRQATGQGLEWMGWMNPNSGNTGYAQKFQGRVTMTRNTSISTAYMELSSLRSEDTAVYYCARGRQWLGFDYWGQGTLVTVSS VL: DIQMTQSPSSLSASVGDRVTITCRASQGIGDDLGWYQQKPGKAPQRLIYSASSLPSGVPSRFSGSGSGTEFTLTISSLQPEDFATYYCLQHNSYPRSFGQGTKLEIR
binds | binds | 11D6 (antibody, V domains shown) VH: QVQLVQSGAEVKKPGASVKVSCKASGYTFTNYDINWVRQATGQGLEWMGWMNPNSGNTGYAQKFQGRVTMTRNTSINTAYMELSSLRSEDTAVYYCARGRQWLGFDYWGQGTLVTVSS VL: DIQMTQSPSSLSASVGDRVTITCRASQDIEHDLGWYQQKPGKAPKRLIYAASTLPSGVPSRFSGSGSGTEFTLTISSLQPEDFATYYCLQHNSFPRSFGQGTQLEIK
binds | binds | 10A9 (antibody, V domains shown) VH: EVQLVQSGAEVKKPGESLKISCKGSGYSFTSQWIGWVRQMPGKGLEWMGIIFPGDSDTRYSPSFQGQVTISADKSISTAYLQWSSLKASDTAMYYCARQGRSYHYYGMDVWGQGTTVTVSS VL: DIVMTQTPLSLPVTPGEPASISCRSTQSLLDGDDGNTLLDWYLQKPGQSPQLLIYTLSYRASGVPDRFSGSGSGTDFTLKISRVEAEDVGVYYCMQRLEFPLTFGGGTKVEIK
binds | binds | 16E3 (antibody, V domains shown) VH: EVQLVQSGAEVKKPGESLKISCKGSGYGFTNYWIGWVRQMPGKGLEWMGTIYPGDSDTRYSPSFQGQVTFSADKSISTAYLQWSSLKASDTAMYYCARQGRSYYYFGMDVWGQGTTVTVSS VL: DIVMTQTPLSLPVTPGEPASISCRSSQSLLDSDEGNTFLDWYLQKPGQPPQLLIYTLSYRASGVPDRFSGSGSGTDFTLKISRVEAEDVGVYYCMQRIEFPLTFGGGTKVEIK
binds | binds | 17D9 (antibody, V domains shown) VH: QVQLQESGPGLVKPSETLSLTCTVSGGSVSSGGYYWSWIRQPPGKGLEWIGNTYYSGSTNYKPSLKSRVTISVDTSKNQFSLKLSSVTAADTAVYYCGRDRGRAVGPFDYWGQGTLVTVSS VL: DIQMTQSPSSLSASVGDRVTITCRASQDIRNDLGWYQQKPGKAPKRLIYAASSLQSGVPSRFSGSGSGTEFTLTIGSLQPEDFTTYYCLQHNSYPLTFGGGTKVEIK
binds | binds | 14D7 (antibody, V domains shown) VH: QVQLQESGPGLVKPSQTLSLTCTVSGGSISSGGYYWNWIRQHPGKGLEWIGYIYYSGNTHYNPSLKSRVTISVDTSKNQFSLKLSSVIAADTAVYYCARDWGRDAFDIWGQGTMVTVSS VL: DIQMTQSPSSLSASVGDRVTITCRASQTISSYLNWYQQKPGKAPKVLIYAASSFQSGVPSRFSGSGSGTDFTLTISSLQPEDFATYYCQQSHYIPRTFGQGTKVEIK
binds | binds | 2B12 (antibody, V domains shown) VH: EVQLVQSGAEVKKPGESLKISCKGSGYNFTNYWIGWVRQMSGKGLEWMGIIYPGDSETRYSPSFQGQVTISADKSISTAYLQWSSLKASDTAMYYCARHGGGWSGWGMDVWGQGTTVTVSS VL: SYELTQPPSVSVSPGQTARITCSGDALPRKYAYWYQQKSGQAPVLVIYEDSKRPSGIPERFSGSSSGTMATLTISGAQVEDEADYYCYSTDSSGNHYVFGTGTKVTVL
binds | binds | 5H3 (antibody, V domains shown) VH: EVQLVQSGAEVKKPGESLKISCKGSGYSFTSYWIGWVRQMPGKGLEWMGIIYPGDSDTTYSPSFQGQVTISADKSINTAYLQWSSLKASDTAMYYCAREGFGESIHYGLDVWGQGTTVTVSS VL: SYELTQPPSVSVSPGQTARITCSGDALPRQYAYWYQQKPGQAPMLVIYKDSERPSGIPERFSGSSSGTTVTLTISGVQAEDEADYYCQSADSSGTYVVFGGGTKLTVL
